No constants are given. Whether binding was seen depends on the method and setting. Some results given as binding are weak or reduced against the parent protein; the word gives no strength. For part of these data: Where a sequence is shown, tags or fusion partners need not be part of it.
B1: monomeric BC8scFv (hexahistidine tag) (scFv, not shown: small tags and cut ends)
scFv: QVQLVESGGGLVQPGGSLKLSCAASGFDFSRYWMSWVRQAPGKGLEWIGEINPTSSTINFTPSLKDKVFISRDNAKNTLYLQMSKVRSEDTALYYCARGNYYRYGDAMDYWGQGTSVTVSSGGGGSGGGGSGGGGSDIVLTQSPASLAVSLGQRATISCRASKSVSTSGYSYLHWYQQKPGQPPKLLIYLASNLESGVPARFSGSGSGTDFTLNIHPVEEEDAATYYCQHSRELPFTFGSGTKLEIK
B2: hBC8(23) humanized BC8 antibody (IgG) (antibody, V domains shown)
VH: EVQLVESGGGLVQPGGSLRLSCAASGFDFSRYWMSWVRQAPGKGLEWIGEINPTSSTINFADSVKGRFTISRDNAKNSLYLQMNSVRDEDTAVYYCARGNYYRYGDAMDYWGQGTLVTVSS
VL: EIVLTQSPATLSLSLGERATISCRASKSVSTSGYSYLHWYQQKPGQAPKLLIYLASNRATGVPARFSGSGPGTDFTLTISSLEPEDFATYYCQHSRELPFTFGQGTKLEIK
B3: chBC8 chimeric IgG (antibody, V domains shown)
VH: QVQLVESGGGLVQPGGSLKLSCAASGFDFSRYWMSWVRQAPGKGLEWIGEINPTSSTINFTPSLKDKVFISRDNAKNTLYLQMSKVRSEDTALYYCARGNYYRYGDAMDYWGQGTSVTVSS
VL: DIVLTQSPASLAVSLGQRATISCRASKSVSTSGYSYLHWYQQKPGQPPKLLIYLASNLESGVPARFSGSGSGTDFTLNIHPVEEEDAATYYCQHSRELPFTFGSGTKLEIKR
B4: ch4B2 chimeric IgG (antibody, V domains shown)
VH: QVQLQQSGAELARPGASVKMSCKASGYTFTSYTMQWVKQRPGQGLEWIGYINPSSGYIKYNQKFKDKVTLTADKSSTTAYMQLSRLTSEDSAVYYCARRGSYFFDFWGQGTSVTVSS
VL: DIVITQDELSNPVTSGESVSISCRSSKSLLYKDGKTYLNWFLQRPGQSPQLLIYLMSTRASGVSDRFSGSGSGTDFTLEISRVKAEDVGVYYCQQLVEYPFTFGGGTKLEVK
B5: ch9.4 chimeric IgG (antibody, V domains shown)
VH: QVQLQQLGAELARPGASVKMSCKASGYTFTSYSIQWVKQRPGQGLEWIGYINPSSGYIKYNQHFRDRATLTADRSSSTAYMQLSSLTSEDSAVYYCARGNSGSFDYWGQGTTLTVSS
VL: DIVMTQAAPSVPVTPGESLSISCRSSKSLLHSSGITYLYWFLQRPGQSPQLLIYRMSNLASGVPDRFSGSGSGTAFTLRISRVEAEDVGVYYCMQHLEYPFTFGGGTKLEIK
B6: BC8 parental mouse monoclonal antibody (antibody, V domains shown)
VH: B3 VH
VL: DIVLTQSPASLAVSLGQRATISCRASKSVSTSGYSYLHWYQQKPGQPPKLLIYLASNLESGVPARFSGSGSGTDFTLNIHPVEEEDAATYYCQHSRELPFTFGSGTKLEIK

The chains behind the UniProt entries cited, without tags or fusion partners. Residues count along the entry.
UniProt P08575, residues 26-1306: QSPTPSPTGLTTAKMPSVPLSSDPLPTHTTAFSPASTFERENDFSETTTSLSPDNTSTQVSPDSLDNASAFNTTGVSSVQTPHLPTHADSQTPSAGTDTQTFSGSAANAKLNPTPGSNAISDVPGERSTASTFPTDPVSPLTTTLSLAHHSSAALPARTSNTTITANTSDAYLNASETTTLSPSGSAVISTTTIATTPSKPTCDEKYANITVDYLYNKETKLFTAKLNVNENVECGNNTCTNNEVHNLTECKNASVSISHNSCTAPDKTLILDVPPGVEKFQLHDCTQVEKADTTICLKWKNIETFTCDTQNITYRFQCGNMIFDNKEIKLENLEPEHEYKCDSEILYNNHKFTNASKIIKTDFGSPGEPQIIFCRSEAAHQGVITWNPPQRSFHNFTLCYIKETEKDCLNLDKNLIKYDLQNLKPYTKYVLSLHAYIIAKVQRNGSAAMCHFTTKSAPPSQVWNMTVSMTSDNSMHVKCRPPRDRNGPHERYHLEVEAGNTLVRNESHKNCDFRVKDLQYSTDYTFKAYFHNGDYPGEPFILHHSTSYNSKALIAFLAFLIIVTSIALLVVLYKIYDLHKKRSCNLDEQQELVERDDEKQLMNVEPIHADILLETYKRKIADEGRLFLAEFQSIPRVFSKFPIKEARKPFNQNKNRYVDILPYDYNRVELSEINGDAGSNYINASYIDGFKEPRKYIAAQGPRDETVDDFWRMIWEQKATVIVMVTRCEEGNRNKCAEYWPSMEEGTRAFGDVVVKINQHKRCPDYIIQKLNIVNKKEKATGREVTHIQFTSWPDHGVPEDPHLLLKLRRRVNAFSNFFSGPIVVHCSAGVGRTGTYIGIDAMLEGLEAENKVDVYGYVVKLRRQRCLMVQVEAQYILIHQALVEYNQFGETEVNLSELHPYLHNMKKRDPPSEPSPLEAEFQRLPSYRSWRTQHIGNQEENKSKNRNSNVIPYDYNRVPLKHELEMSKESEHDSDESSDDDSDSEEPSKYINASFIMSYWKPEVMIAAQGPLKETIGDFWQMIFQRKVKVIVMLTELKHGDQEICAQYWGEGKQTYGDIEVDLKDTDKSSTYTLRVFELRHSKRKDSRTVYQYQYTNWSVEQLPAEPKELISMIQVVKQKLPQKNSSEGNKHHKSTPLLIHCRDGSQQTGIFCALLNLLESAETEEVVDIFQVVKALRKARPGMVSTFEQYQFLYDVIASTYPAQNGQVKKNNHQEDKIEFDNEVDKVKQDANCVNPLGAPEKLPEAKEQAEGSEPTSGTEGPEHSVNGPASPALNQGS

Columns and labels:
human CD45 (human) [1] = molecular target: human CD45 (human) (UniProt P08575); test: flow cytometry on T cells, detected through the hexahistidine tag
human CD45 (human) [2] = molecular target: human CD45 (human) (UniProt P08575); test: flow cytometry on activated human CD8 T cells
human CD45 (human) [3] = molecular target: human CD45 (human) (UniProt P08575); test: soluble competitor in pulse bioassay on activated human CD8 T cells

Binder	binding (human CD45 (human) [2])	other results
B1		binding (human CD45 (human) [1]): binds
B2	binds	
B3	binds	
B4	binds	
B5	binds	
B6		binding (human CD45 (human) [3]): binds
